# Reference: paper PMC6294503
# These are yes or no findings as the source states them, for the method shown. Binding seen in cells or lysates may run through a third protein. Here binding means that the protein was enriched with, or labelled near, the bait; the list need not be complete. Sequences can lack the tags named with a protein.
# T1: Bdp1-Myc (Myc-tagged Bdp1, subunit of TFIIIB) (S. cerevisiae) (UniProt P46678)
# T1 sequence: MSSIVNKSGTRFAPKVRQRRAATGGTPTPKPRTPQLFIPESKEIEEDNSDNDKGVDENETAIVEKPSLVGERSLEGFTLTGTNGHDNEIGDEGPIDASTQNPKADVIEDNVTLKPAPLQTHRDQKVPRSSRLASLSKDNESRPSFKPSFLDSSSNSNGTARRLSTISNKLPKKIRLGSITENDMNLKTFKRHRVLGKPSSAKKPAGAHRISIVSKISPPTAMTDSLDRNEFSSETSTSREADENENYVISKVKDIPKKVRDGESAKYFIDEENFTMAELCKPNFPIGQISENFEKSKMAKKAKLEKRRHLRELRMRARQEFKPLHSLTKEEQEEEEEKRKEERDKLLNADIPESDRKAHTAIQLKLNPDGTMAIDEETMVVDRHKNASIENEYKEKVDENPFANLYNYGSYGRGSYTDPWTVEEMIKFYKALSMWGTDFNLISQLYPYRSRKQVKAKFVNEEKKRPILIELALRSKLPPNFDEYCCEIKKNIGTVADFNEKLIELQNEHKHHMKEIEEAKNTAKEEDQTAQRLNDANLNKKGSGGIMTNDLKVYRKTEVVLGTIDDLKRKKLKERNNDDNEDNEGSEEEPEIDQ
# B1: Brf1 (subunit of TFIIIB) (protein, UniProt P29056 1-596)
# chain: MPVCKNCHGTEFERDLSNANNDLVCKACGVVSEDNPIVSEVTFGETSAGAAVVQGSFIGAGQSHAAFGGSSALESREATLNNARRKLRAVSYALHIPEYITDAAFQWYKLALANNFVQGRRSQNVIASCLYVACRKEKTHHMLIDFSSRLQVSVYSIGATFLKMVKKLHITELPLADPSLFIQHFAEKLDLADKKIKVVKDAVKLAQRMSKDWMFEGRRPAGIAGACILLACRMNNLRRTHTEIVAVSHVAEETLQQRLNEFKNTKAAKLSVQKFRENDVEDGEARPPSFVKNRKKERKIKDSLDKEEMFQTSEEALNKNPILTQVLGEQELSSKEVLFYLKQFSERRARVVERIKATNGIDGENIYHEGSENETRKRKLSEVSIQNEHVEGEDKETEGTEEKVKKVKTKTSEEKKENESGHFQDAIDGYSLETDPYCPRNLHLLPTTDTYLSKVSDDPDNLEDVDDEELNAHLLNEEASKLKERIWIGLNADFLLEQESKRLKQEADIATGNTSVKKKRTRRRNNTRSDEPTKTVDAAAAIGLMSDLQDKSGLHAALKAAEESGDFTTADSVKNMLQKASFSKKINYDAIDGLFR
# B2: Tfc4 (subunit of the τA subcomplex of TFIIIC), as found by mass spectrometry (protein, UniProt P33339 1-1025)
# chain: MAAGKLKKEQQNQSAERESADTGKVNDEDEEHLYGNIDDYKHLIQDEEYDDEDVPHDLQLSEDEYNSERDSSLLAEFSDYGEISEDDEEDFMNAIREASNFKVKKKKKNDKGKSYGRQRKERVLDPEVAQLLSQANEAFVRNDLQVAERLFNEVIKKDARNFAAYETLGDIYQLQGRLNDCCNSWFLAAHLNASDWEFWKIVAILSADLDHVRQAIYCFSRVISLNPMEWESIYRRSMLYKKTGQLARALDGFQRLYMYNPYDANILRELAILYVDYDRIEDSIELYMKVFNANVERREAILAALENALDSSDEESAAEGEDADEKEPLEQDEDRQMFPDINWKKIDAKYKCIPFDWSSLNILAELFLKLAVSEVDGIKTIKKCARWIQRRESQTFWDHVPDDSEFDNRRFKNSTFDSLLAAEKEKSYNIPIDIRVRLGLLRLNTDNLVEALNHFQCLYDETFSDVADLYFEAATALTRAEKYKEAIDFFTPLLSLEEWRTTDVFKPLARCYKEIESYETAKEFYELAIKSEPDDLDIRVSLAEVYYRLNDPETFKHMLVDVVEMRKHQVDETLHRISNEKSSNDTSDISSKPLLEDSKFRTFRKKKRTPYDAERERIERERRITAKVVDKYEKMKKFELNSGLNEAKQASIWINTVSELVDIFSSVKNFFMKSRSRKFVGILRRTKKFNTELDFQIERLSKLAEGDSVFEGPLMEERVTLTSATELRGLSYEQWFELFMELSLVIAKYQSVEDGLSVVETAQEVNVFFQDPERVKMMKFVKLAIVLQMDDEEELAENLRGLLNQFQFNRKVLQVFMYSLCRGPSSLNILSSTIQQKFFLRQLKAFDSCRYNTEVNGQASITNKEVYNPNKKSSPYLYYIYAVLLYSSRGFLSALQYLTRLEEDIPDDPMVNLLMGLSHIHRAMQRLTAQRHFQIFHGLRYLYRYHKIRKSLYTDLEKQEADYNLGRAFHLIGLVSIAIEYYNRVLENYDDGKLKKHAAYNSIIIYQQSGNVELADHLMEKYLSI
# B3: TBP (subunit of TFIIIB) (protein, UniProt P13393 1-240)
# chain: MADEERLKEFKEANKIVFDPNTRQVWENQNRDGTKPATTFQSEEDIKRAAPESEKDTSATSGIVPTLQNIVATVTLGCRLDLKTVALHARNAEYNPKRFAAVIMRIREPKTTALIFASGKMVVTGAKSEDDSKLASRKYARIIQKIGFAAKFTDFKIQNIVGSCDVKFPIRLEGLAFSHGTFSSYEPELFPGLIYRMVKPKIVLLIFVSGKIVLTGAKQREEIYQAFEAIYPVLSEFRKM
# Target: T1, Bdp1-Myc (Myc-tagged Bdp1, subunit of TFIIIB) (S. cerevisiae)
# Experiment: affinity purification with mass spectrometry; S phase cells (WT and cdk1-as1) fixed with 1% formaldehyde; Bdp1-Myc purified from lysates on magnetic anti-Myc beads overnight at 4°C; washes with high-salt TBS (350 mM NaCl) and TBS; copurifying proteins analysed by quantitative MS
row,binding,Binder
1,binds,B1
2,binds,B2
3,binds,B3
